Measurements as given in PubChem BioAssay AID190 (DTP/NCI, 2004).
The list does not hold the whole screen: it gathers some chemical classes. Not every dose and run of a compound is shown. T/C gives the treated animals as a percentage of the vehicle group. Some entries give survivors of the animals treated and no T/C: the source files T/C as zero there, which appears to mark a toxic dose or a test without result, not a measured value. Some doses without a T/C left all or most animals alive at the check, yet need not have been tolerated: survival well below the control is almost never listed, so the zero probably covers shortened survival too. Survivors were counted at the toxicity check, usually on the fifth day, unless a day is given; later deaths do not show. Schedules are NCI's codes, read here as Q, the interval in days (D) or hours (H), X, the number of doses. Counts like (3×) say how often a value occurs here. Some doses were run more than once; the values are given in rising order. Where survival is the endpoint, the PubChem record calls one and a half times the control and up active, and a quarter to a half above the control has no call in these data; cut-offs in other NCI protocols can differ. Some T/C values carry the count of animals alive at the toxicity check (mostly the fifth day); where neither a count nor a note follows, no animal had died by that day.

Test system: AKR/Lw mice, AKR lymphoma ip, median survival T/C
Assay: NCI In Vivo Anticancer Drug Screen. Data for tumor model Lymphoma AKR (Transplanted) (intraperitoneal) in AKR/Lw mice
Settings: T/C endpoint: median survival time, higher T/C = longer survival
Protocol: The antitumor activity of compounds was measured in mice bearing transplantable tumors. Survival or tumor size were measured and the results are expressed as the measurement made in the treated group (T) divided by the measurement made in the vehicle treated control group (C). The tumor model used in this assay is Lymphoma AKR (Transplanted) (intraperitoneal) in AKR/Lw mice

[1] = dose: 300.0 mg/kg/injection, schedule: Q01DX001 (ip), vehicle: Klucel (hydroxypropylcellulose) (HPC)
[2] = dose: 300.0 mg/kg/injection, schedule: Q04DX003 (ip), vehicle: Klucel (hydroxypropylcellulose) (HPC)
[3] = dose: 300.0 mg/kg/injection, schedule: Q04DX003 (ip), vehicle: saline
[4] = dose: 400.0 mg/kg/injection, schedule: Q04DX003 (ip), vehicle: Klucel (hydroxypropylcellulose) (HPC)
[5] = dose: 500.0 mg/kg/injection, schedule: Q01DX001 (ip), vehicle: Klucel (hydroxypropylcellulose) (HPC)
[6] = dose: 500.0 mg/kg/injection, schedule: Q01DX001 (ip), vehicle: saline

NC(=O)c1[nH]cnc1/N=N\N(CCCl)CCCl
T/C (dose: 130.0 mg/kg/injection, schedule: Q01DX001 (ip), vehicle: Klucel (hydroxypropylcellulose) (HPC), evaluated on day 60): 126 % of control | T/C (dose: 150.0 mg/kg/injection, schedule: Q04DX003 (ip), vehicle: Klucel (hydroxypropylcellulose) (HPC), evaluated on day 30): 107 % of control | T/C (dose: 150.0 mg/kg/injection, schedule: Q04DX003 (ip), vehicle: Klucel (hydroxypropylcellulose) (HPC), evaluated on day 60): 89, 109, 138 % of control | T/C (dose: 150.0 mg/kg/injection, schedule: Q04DX003 (ip), vehicle: saline): 88 % of control | T/C (dose: 160.0 mg/kg/injection, schedule: Q01DX001 (ip), vehicle: Klucel (hydroxypropylcellulose) (HPC), evaluated on day 5): 114 % of control | T/C (dose: 160.0 mg/kg/injection, schedule: Q01DX001 (ip), vehicle: Klucel (hydroxypropylcellulose) (HPC), evaluated on day 60): 114 % of control | survivor count (dose: 175.0 mg/kg/injection, schedule: Q04DX003 (ip), vehicle: Klucel (hydroxypropylcellulose) (HPC)): 10 of 10 | T/C (dose: 200.0 mg/kg/injection, schedule: Q01DX001 (ip), vehicle: Klucel (hydroxypropylcellulose) (HPC), evaluated on day 5): 117 % of control | T/C (dose: 200.0 mg/kg/injection, schedule: Q01DX001 (ip), vehicle: Klucel (hydroxypropylcellulose) (HPC), evaluated on day 60): 102, 104 [9 of 10 alive], 110, 114, 117, 141 % of control | T/C (dose: 200.0 mg/kg/injection, schedule: Q01DX001 (ip), vehicle: saline with Tween-80): 111 % of control | T/C (dose: 200.0 mg/kg/injection, schedule: Q01DX001 (ip), vehicle: saline, evaluated on day 45): 107 % of control | T/C (dose: 200.0 mg/kg/injection, schedule: Q01DX001 (ip), vehicle: saline, evaluated on day 60): 111, 125, 128, 138 % of control | T/C (dose: 200.0 mg/kg/injection, schedule: Q01DX009 (ip), vehicle: saline): 89 % of control [9 of 10 alive] | T/C (dose: 200.0 mg/kg/injection, schedule: Q04DX003 (ip), vehicle: Klucel (hydroxypropylcellulose) (HPC), evaluated on day 30): 92 % of control | T/C (dose: 200.0 mg/kg/injection, schedule: Q04DX003 (ip), vehicle: Klucel (hydroxypropylcellulose) (HPC), evaluated on day 60): 97 [9 of 10 alive] and 141 % of control | survivor count (dose: 200.0 mg/kg/injection, schedule: Q04DX003 (ip), vehicle: Klucel (hydroxypropylcellulose) (HPC)): 10 of 10 | T/C (dose: 200.0 mg/kg/injection, schedule: Q04DX003 (ip), vehicle: saline): 123 % of control | T/C (dose: 212.0 mg/kg/injection, schedule: Q01DX001 (ip), vehicle: Klucel (hydroxypropylcellulose) (HPC), evaluated on day 5): 106 % of control | T/C (dose: 212.0 mg/kg/injection, schedule: Q01DX001 (ip), vehicle: Klucel (hydroxypropylcellulose) (HPC), evaluated on day 60): 106 % of control [9 of 10 alive] | T/C (dose: 250.0 mg/kg/injection, schedule: Q04DX003 (ip), vehicle: Klucel (hydroxypropylcellulose) (HPC)): 91 % of control [9 of 10 alive] | T/C (dose: 250.0 mg/kg/injection, schedule: Q04DX003 (ip), vehicle: saline): 122, 140, 150, 168 % of control | survivor count (dose: 256.0 mg/kg/injection, schedule: Q01DX005 (ip), vehicle: water): 10 of 10 | T/C (dose: 270.0 mg/kg/injection, schedule: Q01DX001 (ip), vehicle: Klucel (hydroxypropylcellulose) (HPC), evaluated on day 5): 138 % of control | T/C (dose: 270.0 mg/kg/injection, schedule: Q01DX001 (ip), vehicle: Klucel (hydroxypropylcellulose) (HPC), evaluated on day 60): 138 % of control | T/C [1]: 105 [9 of 10 alive], 128, 128 % of control [9 of 10 alive] | survivor count [1]: 9 of 10 | T/C (dose: 300.0 mg/kg/injection, schedule: Q01DX001 (ip), vehicle: saline, evaluated on day 45): 89 % of control | T/C (dose: 300.0 mg/kg/injection, schedule: Q01DX001 (ip), vehicle: saline, evaluated on day 60): 122, 126, 142, 144 % of control | T/C [2]: 100 and 129 % of control | survivor count [2]: 8 of 10 | T/C [3]: 114 % of control | survivor count [3]: 8 of 10 | T/C (dose: 320.0 mg/kg/injection, schedule: Q01DX001 (ip), vehicle: Klucel (hydroxypropylcellulose) (HPC), evaluated on day 5): 177 % of control | T/C (dose: 320.0 mg/kg/injection, schedule: Q01DX001 (ip), vehicle: Klucel (hydroxypropylcellulose) (HPC), evaluated on day 60): 177 % of control | T/C (dose: 400.0 mg/kg/injection, schedule: Q01DX001 (ip), vehicle: Klucel (hydroxypropylcellulose) (HPC), evaluated on day 5): 146 % of control | T/C (dose: 400.0 mg/kg/injection, schedule: Q01DX001 (ip), vehicle: Klucel (hydroxypropylcellulose) (HPC), evaluated on day 60): 112, 115, 126 [9 of 10 alive], 146, 157 % of control [8 of 10 alive] | survivor count (dose: 400.0 mg/kg/injection, schedule: Q01DX001 (ip), vehicle: Klucel (hydroxypropylcellulose) (HPC)): 8 of 10 and 10 of 10 | T/C (dose: 400.0 mg/kg/injection, schedule: Q01DX001 (ip), vehicle: saline with Tween-80): 108 % of control | T/C (dose: 400.0 mg/kg/injection, schedule: Q01DX001 (ip), vehicle: saline): 88, 100, 122, 150 % of control | T/C (dose: 400.0 mg/kg/injection, schedule: Q01DX009 (ip), vehicle: Klucel (hydroxypropylcellulose) (HPC)): 117 % of control | T/C [4]: 88 % of control [9 of 10 alive] | survivor count [4]: 9 of 10 (2×) | T/C (dose: 400.0 mg/kg/injection, schedule: Q04DX003 (ip), vehicle: saline): 114 % of control | T/C [5]: 115 [9 of 10 alive] and 117 % of control | survivor count [5]: 7 of 10 and 10 of 10 | T/C [6]: 111 % of control | survivor count [6]: 10 of 10 | T/C (dose: 500.0 mg/kg/injection, schedule: Q04DX003 (ip), vehicle: Klucel (hydroxypropylcellulose) (HPC)): 100 % of control | survivor count (dose: 512.0 mg/kg/injection, schedule: Q01DX005 (ip), vehicle: water): 2 of 10 | survivor count (dose: 600.0 mg/kg/injection, schedule: Q01DX001 (ip), vehicle: Klucel (hydroxypropylcellulose) (HPC)): 8 of 10 and 9 of 10 | T/C (dose: 600.0 mg/kg/injection, schedule: Q01DX001 (ip), vehicle: saline): 119 and 144 % of control | survivor count (dose: 800.0 mg/kg/injection, schedule: Q01DX001 (ip), vehicle: Klucel (hydroxypropylcellulose) (HPC)): 9 of 10
